# Among all 300,000 compounds or so, about 3,700 (1.2%) were called active. The shares of active, inactive and inconclusive entries below differ from those in the screen. The call rests on the fitted dose curve; tested in HEK293 cells. Potencies beside an inconclusive call are fits to weak or partial responses and may not hold up.
# Experiment: qHTS for Inhibitors of binding or entry into cells for Lassa Virus; further: nearly all actives have a fitted effect of over 50% in size
# Details: Lassa virus pseudotype entry inhibition, cell reporter; activity change, negative = inhibition: at 37.9 µM (top of the series) unless noted
# On the % scale 0 is the no-effect control and ±100 the full control effect; potency means the concentration at half of the fitted maximal effect.
SMILES,Potency,"activity change, negative = inhibition"
CCCCc1nc2ccccc2c(=O)n1NC(=O)c1c(O)c2ccccc2n(C)c1=O,"inconclusive: 3.16 µM [inhibitor, partial curve, poor fit]",–
COc1ccc(C(CNC(=O)c2ccc(S(=O)(=O)Nc3ccccc3C)cc2)N2CCOCC2)cc1 (stereo unspecified),"inconclusive: 11.2 µM [inhibitor, single point]",–
CCOC(=O)N1CCc2c(sc(NCc3cccs3)c2C(=O)Nc2ccc(OC)cc2OC)C1,"inconclusive: 10 µM [inhibitor, partial curve, poor fit]",–
CCC(C)C1NC(=S)N(Cc2ccccc2)C1=O (stereo unspecified),"inconclusive: 35.5 µM [inhibitor, partial curve, poor fit]",–
COc1cccc(C(=O)Nc2ccc3ccccc3c2)c1,"inconclusive: 7.08 µM [inhibitor, full curve, poor fit]",–
Cc1cc2c(cc1S(=O)(=O)CCC(=O)N1CCCCC1C)OCC(=O)N2 (stereo unspecified),–,inactive: -28.9% [at 46.1 µM]
CCCNC1=C(N(C(C)=O)c2cccc(F)c2)C(=O)c2ccccc2C1=O,"inconclusive: 20.6 µM [inhibitor, single point]",–
COCCc1ncc(CN2CCC(C(=O)Nc3ccc(-n4cccn4)cc3)CC2)cn1,–,inactive: 2.37%
O=C(Nc1cnn(Cc2ccc(Cl)cc2Cl)c1)c1noc2c1CCc1ccccc1-2,–,inactive: 10.9% [at 46.1 µM]
Cc1ccc(N=c2ssnc2Cl)cc1,"inconclusive: 11.6 µM [inhibitor, partial curve]",–
CCOc1ccc(CCNC(=O)c2ccc3c(c2)N(Cc2ccccc2F)C(=O)c2ccccc2S3=O)cc1OCC (stereo unspecified),–,inactive: -16.1% [at 46.1 µM]
COc1ccc(CCNS(=O)(=O)c2cc(-c3onc(C)c3C)ccc2OC)cc1OC,–,inactive: -10.2% [at 46.1 µM]
CCOc1ccc(CCNC(=O)CS(=O)(=O)Cc2nc(-c3ccccc3F)oc2C)cc1,–,inactive: 0.564% [at 46.1 µM]
CCOC(=O)C1CCN(C(=O)c2cc(C)n(C(C)(C)C)n2)CC1,"inconclusive: 14.1 µM [inhibitor, single point]",–
CN(C)/C=C1\C(=O)N(c2ccc(Cl)cc2)CS1(=O)=O,–,inactive: 6.69%
CC(NS(=O)(=O)c1ccccc1)C(c1cccs1)N1CCN(c2ccccc2)CC1 (stereo unspecified),"inconclusive: 29.1 µM [inhibitor, single point]",–
Nc1nc(Nc2ccccc2)nc2c1ncn2[C@@H]1O[C@H](CO)[C@@H](O)[C@H]1O,–,inactive: 2.18%
CC(C)(C)OC(=O)NCCc1nnc(SCc2ccc(Cl)cc2)o1,"inconclusive: 29.1 µM [inhibitor, single point]",–
CCCCC(=O)NC1(C(F)(F)F)C(=O)Nc2c1c(=O)[nH]c(=O)n2-c1ccc(C)c(C)c1 (stereo unspecified),"inconclusive: 35.5 µM [activator, single point]",–
CC1CCC(C(C)C)C(OP(=O)(c2ccc(N(C)C)cc2)C(O)c2cccnc2)C1 (stereo unspecified),"inconclusive: 25.9 µM [inhibitor, single point]",–
CC(=O)c1cccc(NC(=O)Cc2noc3ccccc23)c1,–,inconclusive: 46.3% [activator] [at 46.1 µM]
CCS(=O)(=O)c1ccccc1C(=O)Nc1ccc(-c2nc3ccccc3s2)cc1,–,inactive: -21.4% [at 46.1 µM]
COc1ccc(OC(C)C(=O)NCc2nc(-c3cccc(C)c3)no2)cc1 (stereo unspecified),"inconclusive: 11.2 µM [inhibitor, partial curve, poor fit]",–
Cc1occc1-c1nnc(SCC(=O)NCCc2ccccc2)n1C(C)c1ccccc1 (stereo unspecified),–,inactive: -8.27%

# Pulled by structure from the entries so far:
SMILES,Potency,"activity change, negative = inhibition"
Cc1ccc(N=c2ssnc2Cl)cc1,"inconclusive: 11.6 µM [inhibitor, partial curve]",–
CCCNC1=C(N(C(C)=O)c2cccc(F)c2)C(=O)c2ccccc2C1=O,"inconclusive: 20.6 µM [inhibitor, single point]",–

# Additional entries.

SMILES,Potency,"activity change, negative = inhibition"
COc1ccc(S(=O)(=O)N2CCCCCC2)cc1C(=O)OCc1c(C)noc1C,"inconclusive: 7.94 µM [inhibitor, partial curve, poor fit]",–
COc1ccc(C2Nc3ccccc3C(=O)N2O)cc1CN1CCOCC1 (stereo unspecified),–,inactive: -30.5%
Cc1c(C(=O)N(Cc2ccco2)Cc2ccccc2Cl)oc2ccc(F)cc12,–,inactive: -15.6% [at 46.1 µM]
COc1cc(OC)c(NC(=O)C(Cc2ccccc2)NS(=O)(=O)c2cccc3nsnc23)cc1Cl (stereo unspecified),–,inactive: -9.56% [at 46.1 µM]
CNc1oc(-c2cccc3ccccc23)nc1C#N,"inconclusive: 2 µM [activator, partial curve, poor fit]",–
Cc1cc(NC(=O)CSc2nc3c([nH]c4ccccc43)c(=O)n2-c2cccc(C(F)(F)F)c2)no1,"inconclusive: 11.2 µM [inhibitor, partial curve]",–
O=C(/C=C/c1ccc(Cl)cc1)NC(=S)Nc1ccc(NC(=O)c2ccco2)cc1,active: 1.58 µM,–
COC(=O)Nc1ccc(S(=O)(=O)N2CCC(C(=O)N3CCCC(C)C3)CC2)cc1 (stereo unspecified),–,inactive: -0.0721% [at 46.1 µM]
O=C(NCC(c1cccnc1)N1CCc2ccccc21)c1ccc(F)cc1 (stereo unspecified),"inconclusive: 17.8 µM [inhibitor, single point]",–
Cc1ccc([C@H]2C[C@H](O)[C@@H](n3cc(COC(=O)c4ccccc4)nn3)CN2CC2CCCCC2)cc1,"inconclusive: 2.5 µM [inhibitor, full curve]",–
Cc1ccc(NS(=O)(=O)c2cccc(C(=O)NCC(c3cccs3)N(C)C)c2)cc1 (stereo unspecified),"inconclusive: 17.8 µM [inhibitor, single point]",–
Cc1nn(-c2ccccc2)c(Cl)c1/C=N/Nc1nc2ccccc2n1C,–,inactive: -24%
O=C(COC(=O)/C=C/c1ccc(S(=O)(=O)N2CCOCC2)cc1)NCc1ccc(Cl)cc1,"inconclusive: 11.2 µM [inhibitor, partial curve, poor fit]",–
CCOC(=O)c1cnc2oc3ccccc3n2c1=O,–,inactive: 0.558%
CC(OC(=O)CCc1nc2ccccc2[nH]c1=O)c1ccccc1 (stereo unspecified),"inconclusive: 1.78 µM [activator, full curve, poor fit]",–
COc1ccc(N(CC(=O)NCc2ccc3c(c2)OCO3)C(=O)CCC(=O)Nc2ccccn2)cc1,"inconclusive: 7.94 µM [inhibitor, partial curve, poor fit]",–
Cc1ccc(NC(=O)c2ccc(CNS(=O)(=O)c3ccc4c(c3)C(C)(C)C(=O)N4C)cc2)cc1F,–,inactive: -12.8% [at 46.1 µM]
O=C(NCCN1CCOCC1)Nc1cccc(Cl)c1,"inconclusive: 0.708 µM [inhibitor, single point]",–
O=C(NC(Cc1ccc(O)cc1)C(=O)N=Nc1c(O)[nH]c2ccccc12)c1ccccc1 (stereo unspecified),–,inactive: -7.37% [at 46.1 µM]
COc1ccc(N2CCN(C(=O)CN(c3ccc(OC)cc3)S(=O)(=O)c3ccccc3)CC2)cc1,"inconclusive: 6.31 µM [inhibitor, full curve, poor fit]",–
CC(C)CN(C(=O)CCNC(=O)c1ccc([N+](=O)[O-])cc1)C1CCS(=O)(=O)C1 (stereo unspecified),–,inactive: 3.38% [at 46.1 µM]
O=C(CSc1nc(C2CCCCC2)n(-c2ccccc2)n1)NCC(F)(F)F,–,inactive: 6.45%
Cc1cc(Nc2ccc(C)c(F)c2)n2ncnc2n1,–,inactive: 4.96%
CCN1CCN(C(=O)c2ccc(Cl)c(S(=O)(=O)N3CCOCC3)c2)CC1,–,inactive: 3.65%

SMILES,Potency,"activity change, negative = inhibition"
CSc1nn(Cc2cccc(Cl)c2)c(N(C(C)=O)C(C)=O)c1S(=O)(=O)c1ccccc1,"inconclusive: 2 µM [inhibitor, partial curve, poor fit]",–
Oc1ccc(-c2n[nH]c(=S)n2-c2ccc3c(c2)OCCO3)cc1,"inconclusive: 1.84 µM [inhibitor, partial curve, poor fit]",–
COC(=O)c1[nH]c2ccc(Br)cc2c1NC(=O)CN1CCCCC1CCO (stereo unspecified),–,inactive: 13.1%
Cc1cc(C)c2c(c1)cc(C)c1nnc(SCC(=O)Nc3cc(C)on3)n12,"inconclusive: 1.83 µM [inhibitor, full curve, poor fit]",–
CCc1nc(NCc2cccnc2)c2oc3ccccc3c2n1,"inconclusive: 20.6 µM [inhibitor, partial curve, poor fit]",–
COc1ccc(S(=O)(=O)Nc2ccc(O)c3ccccc23)cc1,"inconclusive: 35.5 µM [inhibitor, single point]",–
COc1ccc2nc(NC(=O)c3cccs3)sc2c1,"inconclusive: 12.6 µM [inhibitor, partial curve, poor fit]",–
COC(=O)c1c(NC(=O)C2COc3ccccc3O2)sc2c1CCN(Cc1ccccc1)C2 (stereo unspecified),–,inactive: -7.24%
CCOc1ccc2nc(C)cc(Nc3cccc([N+](=O)[O-])c3)c2c1,"inconclusive: 29.1 µM [inhibitor, single point]",–
COc1ccc(C)cc1NC(=O)Nc1ccccc1OCc1cc(=O)n2ccccc2n1,–,inactive: -1.15% [at 46.1 µM]
O=C(Nc1ccc2nc3n(c(=O)c2c1)CCCCC3)c1c(F)ccc([N+](=O)[O-])c1F,"inconclusive: 25.1 µM [inhibitor, single point]",–
CCCCNC(=O)c1cnc2sc(N3CCCCCC3)nn2c1=O,–,inactive: 1.34% [at 46.1 µM]
CCCCCC(=O)Nc1cc(S(=O)(=O)N2CCOCC2)ccc1N1CCCCC1,–,inactive: -20.5%
NC(=O)C1CCN(C(=O)CSc2nc3ccccc3s2)CC1,–,inactive: 10.4%
COc1ccc(NC2=CC(c3cccc(OC)c3)N(c3ccc(OC)cc3)C2=O)cc1 (stereo unspecified),"inconclusive: 18.4 µM [inhibitor, partial curve, poor fit]",–
OCCn1c(C(F)(F)F)nc2ccccc21,–,inactive: 25.2%
O=c1[nH]c(COc2ccc(Br)cc2Cl)nc2ccccc12,–,inactive: 0.523% [at 46.1 µM]
C=CCOCCN(CCOCC=C)C1=NS(=O)(=O)c2ccccc21,–,inactive: -3.99%
O=c1c2cc(Br)ccc2[nH]c(=S)n1-c1ccccc1,–,inactive: 13.3%
Cn1c(=O)c(=O)n(C)c2cc(S(=O)(=O)N3CCCC3C(=O)Nc3ccc(F)cc3)ccc21 (stereo unspecified),–,inactive: 6.11% [at 46.1 µM]
COc1ccccc1CNS(=O)(=O)CCNCc1ccco1,"inconclusive: 0.0315 µM [inhibitor, full curve, poor fit]",–
c1coc(CSCc2cn3cccnc3n2)c1,"inconclusive: 14.1 µM [activator, partial curve, poor fit]",–
O=C(CSc1ccccc1Cl)c1ccco1,"inconclusive: 8.91 µM [activator, partial curve, poor fit]",–

# Record cards (already shown):
# `CC(C)CN(C(=O)CCNC(=O)c1ccc([N+](=O)[O-])cc1)C1CCS(=O)(=O)C1` (stereo unspecified) as listed: activity change, negative = inhibition: inactive: 3.38% [at 46.1 µM]
# `COc1ccc2nc(NC(=O)c3cccs3)sc2c1` as listed: Potency: inconclusive: 12.6 µM [inhibitor, partial curve, poor fit]

# From PubChem BioAssay AID540256 (National Center for Advancing Translational Sciences (NCATS), 2011)
